According to patent US11425910B2, “Substituted oxadiazoles for combating phytopathogenic fungi” (BASF SE, priority 2017, dated 2022):
Some entries share one result that the patent states for a list of compounds.

Experiments:
Assay type in all cases: in vivo
[1] = test system: Phakopsora pachyrhizi; assay: Curative control of soy bean rust on soy beans; settings: sprayed to run-off
[2] = test system: Puccinia recondita; assay: Curative control of brown rust on wheat; settings: 63 ppm, sprayed to run-off, untreated plants 90% diseased leaf area
[3] = test system: Phakopsora pachyrhizi; assay: Protective control of soy bean rust on soy beans; settings: sprayed to run-off
[4] = test system: Puccinia recondita; assay: Preventative control of brown rust on wheat; settings: 63 ppm, sprayed to run-off
[5] = 32 ppm, untreated plants 90% diseased leaf area
[6] = 32 ppm, untreated plants 100% diseased leaf area
[7] = 63 ppm, untreated plants 90% diseased leaf area
[8] = untreated plants 90% diseased leaf area
[9] = untreated plants 80% diseased leaf area

Compound	diseased leaf area [1, 5]	diseased leaf area [2]	diseased leaf area [3, 6]	diseased leaf area [1, 7]	diseased leaf area [3, 7]	diseased leaf area [4, 8]	diseased leaf area [1, 6]	diseased leaf area [4, 9]
CC(=S)N(C)C(C)c1ccc(-c2noc(C(F)(F)F)n2)cc1 (racemic) [Ex-1]	at most 20%	at most 15%	at most 5%					
CC(C)C(=S)N(C)C(C)c1ccc(-c2noc(C(F)(F)F)n2)cc1 (racemic) [Ex-2]	at most 20%	at most 15%	at most 5%					
CCCC(=S)N(C)C(C)c1ccc(-c2noc(C(F)(F)F)n2)cc1 (racemic) [Ex-4]	at most 20%		at most 5%					
CCC(C)C(=S)N(C)Cc1ccc(-c2noc(C(F)(F)F)n2)cc1 (racemic) [Ex-6]	at most 20%	at most 15%	at most 5%					
CCC(C)S(=O)(=O)N(C)Cc1ccc(-c2noc(C(F)(F)F)n2)cc1 (racemic) [Ex-29]		at most 9%		at most 16%	at most 7%	at most 15%		
CCS(=O)(=O)NC(C)c1ccc(-c2noc(C(F)(F)F)n2)cc1 (racemic) [Ex-31]		at most 9%		at most 16%	at most 7%	at most 15%		
CCC(CC)S(=O)(=O)NC(C)c1ccc(-c2noc(C(F)(F)F)n2)cc1 (racemic) [Ex-32]				at most 16%	at most 7%			
CCC(=S)N(Cc1ccc(-c2noc(C(F)(F)F)n2)cc1)C(C)C [Ex-3]	at most 20%	at most 15%	at most 5%					
CCCC(=S)N(C)Cc1ccc(-c2noc(C(F)(F)F)n2)cc1 [Ex-5]	at most 20%	at most 15%	at most 5%					
CCC(=S)N(C)Cc1ccc(-c2noc(C(F)(F)F)n2)cc1 [Ex-7, N-methyl-N-[[4-[5-(trifluoromethyl)-1,2,4-oxadiazol-3-yl]phenyl]methyl]propanethioamide]	at most 20%	at most 15%	at most 5%					
CCC(=S)N(C)C(C)c1ccc(-c2noc(C(F)(F)F)n2)cc1 (centres unmarked) [Ex-8, N-methyl-N-[1-[4-[5-(trifluoromethyl)-1,2,4-oxadiazol-3-yl]phenyl]ethyl]propanethioamide]		at most 15%	at most 5%					
CC(C)N(Cc1ccc(-c2noc(C(F)(F)F)n2)cc1)C(=S)C(C)(C)C [Ex-9]			at most 5%					
CC(C)C(=S)N(C)Cc1ccc(-c2noc(C(F)(F)F)n2)cc1 [Ex-10]	at most 20%	at most 15%	at most 5%					
CCC(CC)C(=S)N(C)Cc1ccc(-c2noc(C(F)(F)F)n2)cc1 [Ex-11]	at most 20%	at most 15%	at most 5%					
C=CCN(Cc1ccc(-c2noc(C(F)(F)F)n2)cc1)C(C)=S [Ex-12]	at most 20%		at most 5%					
CC(=S)N(C)Cc1ccc(-c2noc(C(F)(F)F)n2)cc1 [Ex-13]	at most 20%	at most 15%	at most 5%					
CC(C)N(Cc1ccc(-c2noc(C(F)(F)F)n2)cc1)S(C)(=O)=O [Ex-14]		at most 15%	at most 5%				at most 2%	at most 5%
CCCS(=O)(=O)N(Cc1ccc(-c2noc(C(F)(F)F)n2)cc1)C(C)C [Ex-15]			at most 5%					
CCS(=O)(=O)N(Cc1ccc(-c2noc(C(F)(F)F)n2)cc1)C(C)C [Ex-16]			at most 5%				at most 2%	at most 5%
CN(Cc1ccc(-c2noc(C(F)(F)F)n2)cc1)S(C)(=O)=O [Ex-17]		at most 15%	at most 5%				at most 2%	at most 5%
CCS(=O)(=O)N(C)Cc1ccc(-c2noc(C(F)(F)F)n2)cc1 [Ex-18, N-methyl-N-[[4-[5-(trifluoromethyl)-1,2,4-oxadiazol-3-yl]phenyl]methyl]ethanesulfonamide]		at most 15%	at most 5%				at most 2%	at most 5%
CCCS(=O)(=O)N(C)Cc1ccc(-c2noc(C(F)(F)F)n2)cc1 [Ex-19]			at most 5%				at most 2%	at most 5%

Compound	diseased leaf area [1, 5]	diseased leaf area [2]	diseased leaf area [3, 6]	diseased leaf area [1, 7]	diseased leaf area [3, 7]	diseased leaf area [4, 8]	diseased leaf area [1, 6]	diseased leaf area [4, 9]
CCCS(=O)(=O)N(CC)Cc1ccc(-c2noc(C(F)(F)F)n2)cc1 [Ex-20]				at most 16%	at most 7%	at most 15%		
CCN(Cc1ccc(-c2noc(C(F)(F)F)n2)cc1)S(C)(=O)=O [Ex-21]		at most 9%		at most 16%	at most 7%	at most 15%		
CC(C)S(=O)(=O)N(C)Cc1ccc(-c2noc(C(F)(F)F)n2)cc1 [Ex-22]		at most 9%		at most 16%	at most 7%	at most 15%		
CCN(Cc1ccc(-c2noc(C(F)(F)F)n2)cc1)S(=O)(=O)CC [Ex-23]		at most 9%		at most 16%	at most 7%	at most 15%		
CCC(CC)N(Cc1ccc(-c2noc(C(F)(F)F)n2)cc1)S(C)(=O)=O [Ex-25]					at most 7%	at most 15%		
CS(=O)(=O)N(Cc1ccc(-c2noc(C(F)(F)F)n2)cc1)C1CC1 [Ex-26]		at most 9%		at most 16%	at most 7%	at most 15%		
CCS(=O)(=O)N(Cc1ccc(-c2noc(C(F)(F)F)n2)cc1)C1CC1 [Ex-27]		at most 9%		at most 16%	at most 7%	at most 15%		
CCCS(=O)(=O)N(Cc1ccc(-c2noc(C(F)(F)F)n2)cc1)C1CC1 [Ex-28]					at most 7%	at most 15%		
CC(NS(C)(=O)=O)c1ccc(-c2noc(C(F)(F)F)n2)cc1 (centres unmarked) [Ex-30, N-[1-[4-[5-(trifluoromethyl)-1,2,4-oxadiazol-3-yl]phenyl]ethyl]methanesulfonamide]		at most 9%		at most 16%	at most 7%	at most 15%		
CC(C(F)(F)F)S(=O)(=O)N(C)Cc1ccc(-c2noc(C(F)(F)F)n2)cc1 (centres unmarked) [Ex-35]				at most 16%	at most 7%			
CN(Cc1ccc(-c2noc(C(F)(F)F)n2)cc1)S(=O)(=O)CC(F)F [Ex-36]		at most 9%		at most 16%	at most 7%	at most 15%		
CCN(Cc1ccc(-c2noc(C(F)(F)F)n2)cc1)S(=O)(=O)CC(F)(F)F [Ex-37]				at most 16%	at most 7%	at most 15%		
CCN(Cc1ccc(-c2noc(C(F)(F)F)n2)cc1)S(=O)(=O)C(C)C(F)(F)F (centres unmarked) [Ex-38]					at most 7%			
CCN(Cc1ccc(-c2noc(C(F)(F)F)n2)cc1)S(=O)(=O)CC(F)F [Ex-39]		at most 9%		at most 16%	at most 7%	at most 15%		
CCN(Cc1ccc(-c2noc(C(F)(F)F)n2)cc1)S(=O)(=O)CC(C)(F)F [Ex-40]				at most 16%	at most 7%	at most 15%		
O=S(=O)(CC(F)(F)F)N(Cc1ccc(-c2noc(C(F)(F)F)n2)cc1)C1CC1 [Ex-41]				at most 16%	at most 7%			
CC(C(F)(F)F)S(=O)(=O)N(Cc1ccc(-c2noc(C(F)(F)F)n2)cc1)C1CC1 (centres unmarked) [Ex-42]					at most 7%			
O=S(=O)(CC(F)F)N(Cc1ccc(-c2noc(C(F)(F)F)n2)cc1)C1CC1 [Ex-43]				at most 16%	at most 7%	at most 15%		
CC(F)(F)CS(=O)(=O)N(Cc1ccc(-c2noc(C(F)(F)F)n2)cc1)C1CC1 [Ex-44]				at most 16%	at most 7%			
CC(c1ccc(-c2noc(C(F)(F)F)n2)cc1)N(C)S(=O)(=O)CC(F)(F)F (centres unmarked) [Ex-45]					at most 7%			
CC(c1ccc(-c2noc(C(F)(F)F)n2)cc1)N(C)S(=O)(=O)CC(F)F (centres unmarked) [Ex-46]				at most 16%	at most 7%			
